In PubChem BioAssay AID743266 (National Center for Advancing Translational Sciences (NCATS), 2014):
Screen size: about 410,000 compounds; about 310 (0.076%) were called active. Inconclusive means that the source gave no clear call. Such entries were picked first, then a sample of the others. Calls follow the shape of the dose curve; as a rule, active = well fitted activation curve with a large enough effect; inconclusive = small, poorly fitted or top-dose-only effect, or another doubt; inactive = no such curve, though single readings can be large or run the other way. A potency beside an inconclusive call is a rough fit, not a confirmed value.

Protein sequences, listed by entry. Tags and fused reporters are not part of them. Lines headed by an entry give the natural chain unless they say otherwise; changes in a name come on top.
UniProt Q03431: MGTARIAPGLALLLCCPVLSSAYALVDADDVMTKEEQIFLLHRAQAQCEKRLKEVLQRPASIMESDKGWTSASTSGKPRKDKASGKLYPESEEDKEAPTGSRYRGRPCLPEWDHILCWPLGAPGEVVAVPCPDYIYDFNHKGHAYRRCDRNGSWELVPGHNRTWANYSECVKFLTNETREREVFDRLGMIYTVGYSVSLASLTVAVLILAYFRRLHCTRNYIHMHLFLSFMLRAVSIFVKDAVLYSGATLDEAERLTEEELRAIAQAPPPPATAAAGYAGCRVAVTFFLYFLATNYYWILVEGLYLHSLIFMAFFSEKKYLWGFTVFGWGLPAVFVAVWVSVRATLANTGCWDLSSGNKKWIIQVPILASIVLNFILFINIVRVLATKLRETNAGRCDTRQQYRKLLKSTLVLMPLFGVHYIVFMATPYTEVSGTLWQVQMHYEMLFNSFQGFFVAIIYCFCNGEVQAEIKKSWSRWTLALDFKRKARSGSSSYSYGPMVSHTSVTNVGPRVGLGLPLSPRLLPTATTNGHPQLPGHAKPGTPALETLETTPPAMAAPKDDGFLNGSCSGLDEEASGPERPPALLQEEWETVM

biological target: Parathyroid hormone/parathyroid hormone-related peptide receptor (Homo sapiens) (UniProt Q03431); assay: qHTS for PTHR1 Agonists: Primary Screen; conditions: HEK293 GP2 PTHR1 cells, GloSensor cAMP luminescence, 1 h; activation: at 115 µM (top of the series) unless noted; series mostly up to 115 µM; also: nearly all actives have a fitted effect of over 55% in size
Outline: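 HEK-293-derived GP2 cells expressing PTHR1 and a GloSensor cAMP reporter, 3,000/well, plated overnight, given luciferin plus IBMX (each 0.5 mM as added) for 1 h at 37 °C, then compound for 1 h at 37 °C. Luminescence was read after 15 min at room temperature.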
Potency is read from the fitted curve at half-maximal effect.

| Structure (SMILES) | Potency | activation |
| --- | --- | --- |
| CC(Oc1cccnc1[N+](=O)[O-])C(=O)Nc1ccc(F)cc1 (stereo not drawn) | inconclusive: 44.7 µM [activator, partial curve, poor fit] |  |
| Cc1nc(-c2cccc3ccccc23)ccc1C(=O)O | inconclusive: 14.1 µM [activator, single point] |  |
| COCCOc1cc2ncnc(N3CCC(C(=O)O)CC3)c2cc1OCCOC | inactive |  |
| COc1c(Br)cc(Br)cc1/C=N/NC(=O)c1ccncc1 | inactive |  |
| CC(=O)N/C(=C\c1ccccc1)C(=O)OCC(=O)N(CC(C)C)c1c(N)n(Cc2ccccc2)c(=O)[nH]c1=O | inconclusive: 28.2 µM [activator, single point] |  |
| O=C(O)CSc1nnc(-c2ccccc2)c(-c2ccccc2)n1 | inconclusive: 126 µM [activator, single point] |  |
| COCCNC(=S)N1CCN(c2nc3ccccc3s2)CC1 | inactive |  |
| CCOC(=O)Nc1cccc2ccccc12 | inconclusive: 17.8 µM [activator, partial curve] |  |
| CCCCOc1ccc(CNC(=O)c2cnc3sc(N4CCCC4)nn3c2=O)cc1 | inconclusive: 0.767 µM [activator, full curve] |  |
| CC(C)(C)c1nc(SCC(=O)Nc2nc3c(s2)CCCC3)c2ccccc2n1 | inconclusive: 31.6 µM [activator, single point] |  |
| CCOC(=O)N1CCC(NC(=O)CCC(=O)N2CC(C)Oc3ccccc32)CC1 (stereo not drawn) | inconclusive: 1.22 µM [activator, partial curve, poor fit] |  |
| Cc1nn2c(-c3ccccc3)cc(-c3ccccc3)nc2c1-c1ccc(Cl)cc1 | inconclusive: 141 µM [activator, single point] |  |
| NC(=O)c1c(NC(=O)C2COc3ccccc3O2)sc2c1CCN(Cc1ccccc1)C2 (stereo not drawn) | inactive |  |
| COc1ccc(NC(=O)[C@H](Cc2ccccc2)N2Cc3ccccc3C2=O)cc1OC | inconclusive: 126 µM [activator, single point] |  |
| O=C(Cn1c(=O)n(Cc2ccccc2)c(=O)c2ccccc21)NCc1ccco1 |  | inconclusive: -39.3% [activator] |
| O=C(CN(CC1CCCO1)S(=O)(=O)c1ccc(S(=O)(=O)NC2CC2)cc1)Nc1ccccc1 (stereo not drawn) | inconclusive: 31.6 µM [activator, single point] |  |
| CSCC[C@H](NC(=O)[C@H](Cc1ccccc1)n1c(=O)[nH]c2ccccc2c1=O)C(=O)N1CCC(C(=O)O)CC1 | inactive |  |
| COc1cc(NC(=O)C2CCN(S(=O)(=O)c3ccc4[nH]c(=O)oc4c3)CC2)cc(OC)c1 | active: 0.767 µM |  |
| CCCC(NS(=O)(=O)c1ccc(OC)cc1)C(=O)O (stereo not drawn) | inconclusive: 25.1 µM [activator, partial curve] |  |
| COc1cc(-c2nnc(NC(=O)CCS(=O)(=O)c3ccc(F)cc3)o2)cc(OC)c1OC | inconclusive: 126 µM [activator, single point] |  |
| COc1cc(F)ccc1-c1cc(C(=O)NCc2cccc(Cl)c2)[nH]n1 | inactive |  |
| c1ccc(-c2noc(-c3cccc4ccccc34)n2)nc1 | inactive |  |

Two of these compounds, set out differently.
Structure (SMILES)	Potency	activation
COCCNC(=S)N1CCN(c2nc3ccccc3s2)CC1	inactive	
CCOC(=O)Nc1cccc2ccccc12	inconclusive: 17.8 µM [activator, partial curve]	

Carrying on:

| Structure (SMILES) | Potency | activation |
| --- | --- | --- |
| CCOc1ccccc1-n1nnnc1SCC(=O)Nc1cc2oc3ccccc3c2cc1OC | inconclusive: 5.01 µM [activator, partial curve] |  |
| Cc1ccc(Cc2c(-c3cccc(Br)c3)nc3c(C)cc(Br)cn23)cc1 | inconclusive: 126 µM [activator, single point] |  |
| Cc1ccnc(NS(=O)(=O)c2ccc(NC(=O)c3ccc(S(=O)(=O)N4CCCC4)cc3)cc2)n1 | inconclusive: 44.7 µM [activator, partial curve, poor fit] |  |
| O=C1CN(C(=O)c2cccc(S(=O)(=O)N3CCCC3)c2)c2ccccc2N1 | inactive |  |
| O=C(O)C1C2C=CC(CC2)C1C(=O)O (stereo not drawn) | inactive |  |
| O=C(O)c1ncc(Cl)c(Cl)c1Cl | inconclusive: 141 µM [activator, single point] |  |
| Cc1ccc(NC(=O)CC2Nc3ccccc3NC2=O)cc1C (stereo not drawn) | inconclusive: 141 µM [activator, single point] |  |
| COc1ccc(CNC(=O)CC2C(=O)NCCN2CC(C)(C)C)c(OC)c1 (stereo not drawn) | inconclusive: 50.1 µM [activator, partial curve, poor fit] |  |
| Cc1ccc(NC(=O)N2CCN(Cc3ccc4c(c3)OCO4)CC2)cc1 | inconclusive: 1.58 µM [activator, full curve, poor fit] |  |
| O=C(O)c1ccc(NC(=O)c2cc(S(=O)(=O)N3CCCCC3)c(Cl)cc2Cl)cc1 | inconclusive: 44.7 µM [activator, partial curve, poor fit] |  |
| COc1ccc(C(=O)c2c(-c3cccc(C)c3)oc3ccc(N4CCOCC4)cc23)cn1 | inactive |  |
| c1cncc(C2OCC3(CO2)COC(c2cccnc2)OC3)c1 (stereo not drawn) | inconclusive: 3.16 µM [activator, partial curve, poor fit] |  |
| Cn1cccc1CC(=O)NNC(=S)Nc1ccc(Cl)cc1Cl | inconclusive: 89.1 µM [activator, single point] |  |
| COC(=O)C1CCN(C(=O)COC(=O)c2oc3ccc(OC)cc3c2C)CC1 | inactive |  |
| O=C1CC(c2ccccc2)CC(=O)C1=CN1CCCC1 (stereo not drawn) | inconclusive: 50.1 µM [activator, partial curve, poor fit] |  |
| Cc1cc(OCCSc2nnc(-c3cccs3)n2C)ccc1Cl | inconclusive: 2.51 µM [activator, partial curve] |  |
| NC(=O)C1(N2CCCCC2)CCN(c2ccc3nnc(-c4ccccc4)n3n2)CC1 | inconclusive: 141 µM [activator, single point] |  |
| CCCCNCCCOc1ccc(C)cc1Br | inconclusive: 50.1 µM [activator, partial curve, poor fit] |  |
| CCCNC(=O)C1CCC(Cn2c(=O)c3sccc3n(CC(=O)NCc3cccc(OC)c3OC)c2=O)CC1 (stereo not drawn) | inconclusive: 5.01 µM [activator, partial curve, poor fit] |  |
| Fc1ccc(CN2CCCCCCC2)c(F)c1 | inconclusive: 12.6 µM [activator, partial curve] |  |
| C/C(=N\Nc1cc(N2CCOCC2)nc(C)n1)c1cccc([N+](=O)[O-])c1 | inconclusive: 50.1 µM [activator, partial curve, poor fit] |  |
